PubChem BioAssay AID1671190 (National Center for Advancing Translational Sciences (NCATS), 2021)
Out of some 580,000 compounds screened, about 6,100 (1.1%) were called active. This list was built around the results that the source calls inconclusive (neither active nor inactive); the mix of calls is not that of the screen. Calls come from the whole dose curve; as a rule, active = well fitted inhibition curve with a large enough effect; inconclusive = small, poorly fitted or top-dose-only effect, or another doubt; inactive = no such curve, though single readings can be large or run the other way. Where the call is inconclusive, the potency comes from a doubtful curve fit.

Chains of the proteins cited; added tags and fusions are not shown.
UniProt P18054, whole entry, looked up: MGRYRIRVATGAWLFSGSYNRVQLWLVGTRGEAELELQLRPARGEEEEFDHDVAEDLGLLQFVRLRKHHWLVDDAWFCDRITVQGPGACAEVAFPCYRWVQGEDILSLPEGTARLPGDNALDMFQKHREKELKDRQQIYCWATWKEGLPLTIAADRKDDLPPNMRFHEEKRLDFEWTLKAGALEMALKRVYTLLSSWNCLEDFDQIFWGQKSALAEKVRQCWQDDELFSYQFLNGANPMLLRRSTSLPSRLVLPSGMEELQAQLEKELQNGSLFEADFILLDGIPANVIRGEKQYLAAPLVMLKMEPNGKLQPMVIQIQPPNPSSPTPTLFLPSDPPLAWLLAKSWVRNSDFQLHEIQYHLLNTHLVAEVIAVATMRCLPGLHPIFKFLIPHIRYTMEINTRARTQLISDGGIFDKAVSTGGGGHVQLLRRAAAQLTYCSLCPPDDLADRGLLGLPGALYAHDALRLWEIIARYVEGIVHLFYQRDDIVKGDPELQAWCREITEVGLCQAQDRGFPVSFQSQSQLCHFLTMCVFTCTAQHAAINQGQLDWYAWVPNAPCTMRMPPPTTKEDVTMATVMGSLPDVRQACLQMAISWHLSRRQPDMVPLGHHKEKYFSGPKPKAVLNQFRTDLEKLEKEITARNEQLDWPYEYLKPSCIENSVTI

The molecules below were run against Polyunsaturated fatty acid lipoxygenase ALOX12 (Homo sapiens) (UniProt P18054) (assay: Primary qHTS assay for inhibitors of human arachidonate 12S-lipoxygenase (ALOX12): Round 2). Conditions: purified 12hLO, xylenol orange hydroperoxide absorbance; activity change, negative = inhibition: at 108 µM (top of the series) unless noted.
Procedure, shortened: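 Purified human 12hLO at 150 nM in 25 mM Hepes, 0.01% Triton X-100, pH 7.0, preincubated 15 min at room temperature with compound. Reaction started with 40 uM arachidonic acid, 30 min at room temperature. Hydroperoxide measured by Fe-xylenol orange, 573/405 nm absorbance ratio.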
% is set by controls: 0 for no effect and ±100 for the full control effect; potency is the fitted concentration of half-maximal effect.

SMILES | activity change, negative = inhibition | Potency
Cc1ccc(NC(=O)C(=O)NCC2CCCN2S(=O)(=O)c2cccs2)c(C)c1 (centres undefined) | inactive: 20.3% | –
O=C(NCC(=O)N(c1cccnc1)C(C(=O)NC1CCCC1)c1ccccc1)c1ccco1 (centres undefined) | – | inconclusive: 112 µM [inhibitor, partial curve, poor fit]
Cn1c(SCC(=O)NCc2ccc(F)cc2)ncc(C(=O)Nc2ccccc2)c1=O | – | inconclusive: 158 µM [inhibitor, partial curve, poor fit]
CCN(CC)S(=O)(=O)c1ccc2c(c1)CC(C(=O)NCc1ccccc1Cl)N2C(C)=O (centres undefined) | – | inconclusive: 112 µM [inhibitor, single point]
CN1CCN(C(=O)CCN2C(=O)/C(=C/c3cccc(Br)c3)SC2=S)CC1 | – | inconclusive: 50.1 µM [inhibitor, partial curve, poor fit]
CCN1CCN(c2ccc(NC(=O)c3ccc(OC)c(F)c3)cc2C)CC1 | – | inconclusive: 50.1 µM [inhibitor, partial curve, poor fit]
O=C(c1cccs1)N(Cc1ccco1)C1CC1 | – | inconclusive: 100 µM [inhibitor, partial curve, poor fit]
O=C(NCCn1ccn2nc(-c3ccc(F)cc3)cc2c1=O)c1c(F)cccc1Cl | inactive: -1.93% | –
COC(=O)c1sc2cccc(F)c2c1S(=O)(=O)N1CCN(c2cccc(OC)c2)CC1 | – | inconclusive: 158 µM [inhibitor, partial curve, poor fit]
CCOC(=O)N1CCN(CC(=O)Nc2nccs2)CC1 | – | inconclusive: 3.98 µM [inhibitor, full curve, poor fit]
O=[N+]([O-])c1ccc(N2CCOCC2)nc1 | inactive: 22.1% | –
CCc1ccc(/C=C2\N=C(SC)SC2=O)cc1 | – | inconclusive: 0.112 µM [inhibitor, full curve, poor fit]
O=C(O)CC(C(=O)O)C1CCCO1 (centres undefined) | – | inconclusive: 44.7 µM [inhibitor, partial curve, poor fit]
COc1ccccc1/C=C/CN1CCCC(CCC(=O)NCc2ccc(F)c(F)c2)C1 (centres undefined) | inactive: -16.6% | –
Cc1ccc2cc(CN3CCN(CC(N)=O)CC3)c(-c3cccs3)nc2c1 | – | inconclusive: 11.2 µM [inhibitor, partial curve]
C[C@@](N)(C(=O)O)c1ccc(C(=O)O)cc1 | – | inconclusive: 0.708 µM [inhibitor, full curve, poor fit]
COCCCNCCCOc1ccc(C(C)(C)c2ccccc2)cc1 | – | inconclusive: 1 µM [inhibitor, full curve, poor fit]
O=S(=O)(Cc1ccccc1F)CC(O)c1ccccc1 (centres undefined) | inactive: 1.24% | –
COc1cccc2cc(S(=O)(=O)c3ccc(F)c(C)c3)c(=O)oc12 | – | inconclusive: 141 µM [inhibitor, partial curve, poor fit]
Cc1cc(/C=C2/C(=N)N3C(c4ccccc4)=CSC3=NC2=O)c(C)n1-c1ccccc1 | – | inconclusive: 11.2 µM [inhibitor, full curve, poor fit]
COC(=O)[C@@]1(C(C)C)N=C(c2cc(OC)c(OC)c(OC)c2)[C@]2(O1)C(=O)N(C)c1ccccc12 | – | inconclusive: 126 µM [inhibitor, single point]
Fc1ccc(-c2nc3ccc(Br)cn3c2Cc2ccccc2C(F)(F)F)cc1 | – | active: 17.8 µM

SMILES | activity change, negative = inhibition | Potency
CCOC(=O)c1nc(Nc2ccccc2)c2ccccc2n1 | inactive: 4.87% | –
COc1cc(NC(=S)NCCSc2ccc(C)cc2)cc(OC)c1 | – | inconclusive: 39.8 µM [inhibitor, partial curve, poor fit]
N#Cc1c(F)cccc1NCCNc1cc(Cl)nc(N)n1 | inactive: -29% | –
CCCS(=O)(=O)N1CC(Oc2ccc(-c3noc(-c4cccnc4)n3)cc2)C1 | inactive: 6.11% | –
O=C1Nc2ccccc2Oc2cc(Oc3cccc(Cl)c3)ccc21 | – | inconclusive: 63.1 µM [inhibitor, partial curve, poor fit]
FC(F)(F)c1cnc(-c2cnc(-c3ccncc3)nc2)c(Cl)c1 | inactive: -9.93% | –
CCCCCCCC(=O)Oc1ccc(C(=O)O)cc1 | inactive: -3.39% | –
CCCCNC(=S)N/N=C/c1ccc(C#N)cc1 | inactive: -17.2% | –
COc1cccc(/C=C(/SCC(=O)O)c2nc3ccccc3s2)c1 | – | inconclusive: 11.2 µM [inhibitor, partial curve, poor fit]
COC(=O)Nc1ccc2c(c1)N(C(=O)CCN1CCN3CCCC3C1)c1ccccc1S2 (centres undefined) | – | inconclusive: 39.8 µM [inhibitor, partial curve, poor fit]
Cc1cccc(Cn2cc(/C=C/[N+](=O)[O-])c3ccccc32)c1 | – | inconclusive: 0.447 µM [inhibitor, full curve, poor fit]
N#CC1=C(N)NC(SCc2ccc(Br)cc2)=C(C#N)C12CCCCC2 | – | inconclusive: 7.08 µM [inhibitor, full curve, poor fit]
COCCn1c(SCC(=O)c2ccccc2OC)nnc1-c1ccc(Cl)cc1 | inactive: -5.52% | –
COc1cccc(OC)c1C(=O)N1CCN(Cc2ccccc2C(F)(F)F)CC1 | – | inconclusive: 0.794 µM [inhibitor, full curve]
Cc1cccc(C(=S)N2CCOCC2)n1 | inactive: -25.2% | –
Cc1ccc(C(=O)NC2CCCN(c3cc(N(C)C)ncn3)C2)s1 (centres undefined) | inactive: 28% | –
CSc1cccc(NC(=S)N(CCCN2CCCC2)Cc2cccn2Cc2ccc(Cl)cc2)c1 | – | inconclusive: 15.8 µM [inhibitor, partial curve, poor fit]
COCCCNC(=O)CCN(CCC(C)C)C(=O)c1ccoc1 | inactive: 0.87% | –
Cc1cc(/C=N/O)c(C)n1-c1ccncc1 | – | inconclusive: 50.1 µM [inhibitor, partial curve, poor fit]
CCC(C)CCN1CCN=C1N(C)C (centres undefined) | – | inconclusive: 79.4 µM [inhibitor, single point]
COc1ccc(CN2C(=O)CN=C2Nc2cc(C)ccc2C)cc1 | – | inconclusive: 8.91 µM [inhibitor, partial curve, poor fit]
Cc1cc(NC(=O)c2ccc3c(c2)N(C)C2CCCN2C3=O)ccc1Br (centres undefined) | – | inconclusive: 44.7 µM [inhibitor, partial curve, poor fit]

Quoted at random: 2 records from the list.
SMILES | activity change, negative = inhibition | Potency
Cn1c(SCC(=O)NCc2ccc(F)cc2)ncc(C(=O)Nc2ccccc2)c1=O | – | inconclusive: 158 µM [inhibitor, partial curve, poor fit]
COCCCNC(=O)CCN(CCC(C)C)C(=O)c1ccoc1 | inactive: 0.87% | –
